From patent EP4707301A1
Results are given in words; binding and its absence hold for the method and conditions named. Some entries that bind do so weakly or less than the wild type.

Sequences of proteins named here, by UniProt entry; tags and fusion partners are left off. Residues count along the entry.
UniProt Q01344, residues 21-420: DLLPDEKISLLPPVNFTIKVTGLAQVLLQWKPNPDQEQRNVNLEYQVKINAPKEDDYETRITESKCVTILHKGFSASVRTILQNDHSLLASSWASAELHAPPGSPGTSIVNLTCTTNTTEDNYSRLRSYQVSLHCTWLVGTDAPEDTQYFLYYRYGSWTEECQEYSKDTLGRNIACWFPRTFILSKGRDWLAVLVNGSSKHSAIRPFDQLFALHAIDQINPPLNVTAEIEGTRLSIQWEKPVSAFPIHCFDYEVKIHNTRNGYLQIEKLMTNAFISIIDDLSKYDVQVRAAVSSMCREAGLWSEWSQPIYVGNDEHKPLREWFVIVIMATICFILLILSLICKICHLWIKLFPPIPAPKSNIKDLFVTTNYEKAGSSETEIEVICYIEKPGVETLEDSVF

Target: human IL-5Rα expressed on the K562/IL-5Rα cell line (human) (UniProt Q01344)
Assay: flow cytometry on K562/IL-5Rα cells, 50 nM antibody, Alexa Fluor 647 anti-human Fc

binding: binds
B1: 5R65.7 anti-IL-5Rα monoclonal antibody (antibody, V domains shown)
VH: QVQLVQSGAEVKKPGSSVKVSCKASGYTFTSYWINWVRQAPGQGLEWIGHIYPNKNENYYNHKFKDKATLTVDKSTNTAYMELSSLRSEDTAVYYCTREFYGRQYYQAMDYWGQGTTLTVSS
VL: DIQMTQSPSTLSASVGDRVTITCKASQNVGTAVAWYQQKPGKAPKLLIYWASTRHTGVPDRFSGSGSGTDFTLTISSLQPDDFATYYCQQFGRYPYTFGSGTKVEVK
